Test: Extraction of Fe(III) from aqueous solution into ionic liquid, ICP-OES
Format: physicochemical
Details: for % extracted: 1 mL ionic liquid, 1 mL aqueous solution; for [Fe (III)] after extraction: aqueous phase
[1] = [Fe(III)] before extraction 53.48 ppm
[2] = [Fe(III)] before extraction 501.53 ppm
[3] = [Fe(III)] before extraction 5860.33 ppm

N-hexylethylenediaminium bis(trifluoroethanesulfonyl)amide [[HHex][Tf2N]]
% extracted ([Fe(III)] before extraction 0.06 ppm): 100% | % extracted ([Fe(III)] before extraction 0.48 ppm): 100% | % extracted ([Fe(III)] before extraction 4.79 ppm): 100% | % extracted [1]: 92.5% | [Fe (III)] after extraction [1]: 4.14 ppm | % extracted [2]: 99.4% | [Fe (III)] after extraction [2]: 2.81 ppm | % extracted [3]: 99.1% | [Fe (III)] after extraction [3]: 54.60 ppm

Reference: patent US11026419B2, “Silver- and copper-chelating ionic liquids, polymers, and gels, and uses thereof” (Massachusetts Institute of Technology, priority 2016, dated 2021)
